# From PubChem BioAssay AID2417 (National Center for Advancing Translational Sciences (NCATS), 2010)
# Hit rate of the full screen: of about 140,000 compounds, about 4,300 (3.1%) were called active. The shares of active, inactive and inconclusive entries below differ from those in the screen.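 The calls were made as follows: active = readout at or below -70, meaning at least 70% loss of cells showing the perinucleolar compartment, a nuclear body marking cancer cells; inconclusive = readout between -30 and a set limit; inactive = the rest.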
# Assay: High Content Assay for Compounds that inhibit the Assembly of the Perinucleolar Compartment;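 also: plate controls were DMSO wells for no effect and camptothecin positive control wells for full effect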
# Details: PC3M PTB-GFP, PNC prevalence imaging, 16 h; at 10 µM; stronger effect = lower value
# Outline: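 Read-out is percentage of cells bearing a perinucleolar compartment, from automated 20x imaging of fixed, Hoechst-stained PC3M PTB-GFP cells. Cells were seeded 4 h, then exposed 16 h to compound (23 nl of library stock) in duplicate plates.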
row,SMILES,"activity change (PNC), negative = inhibition"
1,O=C(c1cccc([N+](=O)[O-])c1)N1CCOCC1,inactive: 29.9%
2,CN(C)c1ccc(NC(=O)CC(NCc2ccccn2)C(=O)O)cc1 (stereo not given),inactive: -8.69%
3,Nc1ccc(C(=O)OCC(=O)Nc2ccc([N+](=O)[O-])cc2C(F)(F)F)cc1,inactive: 15.2%
4,CCN(CC)S(=O)(=O)c1ccc(NC(=O)CN(c2cccc(F)c2)S(C)(=O)=O)cc1,inconclusive: -41.1%
5,CCOC(=O)N1CCN(C(=O)C(=O)NNC(=O)COc2ccc(Cl)cc2)CC1,inactive: -1.49%
6,COC(=O)CCC(=O)Oc1ccc(OC(=O)CCC(=O)OC)cc1,active: -113%
7,CSc1ccc(/C=C(\C#N)C(=O)NC2CCCCC2)cc1,inconclusive: -50.9%
8,CCCN1CC=C2C(C#N)=C(N)C(C#N)(C#N)C(c3cccc(OC)c3OC)C2C1 (stereo not given),active: -95.2%
9,CSc1nnc(-c2ccccc2Cl)o1,inactive: 54.8%
10,CCCCN(C)CC(O)Cn1cc(/C=C/C(=O)c2cccs2)c2ccccc21 (stereo not given),active: -100%
11,COc1ccc(N2CCN(C(=O)CN=C3NS(=O)(=O)C(c4ccc(C)cc4)=C3C)CC2)cc1,inconclusive: -76.7%
12,O=[n+]1c2c(n([O-])c3cc(F)ccc31)CCCC2,inconclusive: -45.4%
13,O=[N+]([O-])c1c(NCCO)cc(N2CCN(Cc3ccc4c(c3)OCO4)CC2)c2nonc12,inactive: 69.9%
14,c1coc(CN(Cc2cccs2)Cc2nnnn2C2CCCCC2)c1,active: -100%
15,COc1cc(Cl)c(S(=O)(=O)N2CCOCC2)cc1Cl,inconclusive: -38.8%
16,COC(=O)c1ccc(NC(=S)Nc2ccccn2)cc1,inconclusive: -60.4%
17,Cc1cc(C)c(-c2cc(C(=O)Nc3c(C)n(C)n(-c4ccccc4)c3=O)[nH]n2)c(O)c1,inconclusive: -36.3%
18,Cc1cc(C)cc(-n2nnnc2SCC(=O)Nc2cccc(NC(=O)c3ccco3)c2)c1,inactive: 11.1%
19,COc1ccc(CCNC(=O)Cn2cc(C(F)(F)F)cc(Cl)c2=O)cc1,inconclusive: -78.9%
20,CC(C)(C)c1ccc(-c2noc(CCC(=O)NCC3CCCO3)n2)cc1 (stereo not given),inactive: 8.69%
21,CCn1c(SCC(=O)N/N=C/C=C/c2ccco2)nnc1-c1ccc(OC)cc1,inconclusive: -31.4%
22,O=Cc1nc(-c2ccccc2Cl)n2ccccc12,inconclusive: -35.2%
23,O=c1nc(N2CCCCC2)nc2n1CCO2,inconclusive: -67.1%

row,SMILES,"activity change (PNC), negative = inhibition"
1,CCN1CCn2c1nc(N1CCCCC1)nc2=O,inconclusive: -46%
2,COc1cc(COc2ccc3c(C)c(Cc4ccccc4)c(=O)oc3c2)cc(OC)c1OC,inconclusive: -37.1%
3,O=C(Nc1cccc(S(=O)(=O)N2CCOCC2)c1)c1cc2c(s1)CCC2,inconclusive: -65.6%
4,Cc1ccc(OCc2nnc(NC(=O)c3ccco3)s2)c(C)c1,active: -107%
5,COc1ccccc1NC(=O)C1=C(C)Nc2nnnn2C1c1cc(Br)ccc1OC (stereo not given),inconclusive: -31.3%
6,COC(=O)c1cc(C(=O)OCC(=O)N2c3ccccc3NC(=O)C2(C)C)cc([N+](=O)[O-])c1,inconclusive: -46.2%
7,Cc1cccc(Nc2ncnc3ccccc23)c1,inconclusive: -52%
8,CC1=C(C(=O)OCc2ccccc2)C(c2ccco2)n2ncnc2N1 (stereo not given),inconclusive: -32.5%
9,COC1=CCC2([N+](=O)[O-])CN(CC(=O)O)CC1([N+](=O)[O-])C2 (stereo not given),inactive: 6.59%
10,CN1CCN(CC(=O)N/N=C/c2ccc(F)c(F)c2)CC1,inconclusive: -32.1%
11,CCCCN(CC)C(=O)CSc1cc(=O)n(C)c2ccccc12,inactive: 28%
12,Cn1ncc([N+](=O)[O-])c1C(=O)Nc1nccs1,active: -105%
13,O=c1c2c3c(sc2nc2n1CCCC2)CCCCC3,inactive: 50.9%
14,COC(=O)c1c(C)oc2ccc(N(C(=O)Oc3ccccc3)S(=O)(=O)c3ccc(Cl)c([N+](=O)[O-])c3)cc12,inconclusive: -47.5%
15,COc1cccc(OCC(O)CN(CCO)Cc2ccccc2)c1 (stereo not given),inconclusive: -40.1%
16,COc1ccc(O)c(/C=N/c2sc(C)c(C)c2C#N)c1,inactive: 29.6%
17,CSc1ccccc1NC(=O)Nc1cccc(Cl)c1,inconclusive: -74.8%
18,CN(c1cccc(NC(=O)Cc2ccccc2)c1)S(C)(=O)=O,inconclusive: -44%
19,OCc1cn(-c2ccccc2)nc1-c1ccc2c(c1)OCCO2,inconclusive: -34.1%
20,CCCn1nc(C(=O)Oc2ccc3c(C)cc(=O)oc3c2)c2ccccc2c1=O,inconclusive: -34.8%
21,CCc1ccc2[nH]c(=O)c(CN(CCCO)C(=O)NCc3ccccc3)cc2c1,inconclusive: -39.4%
22,CCOC(=O)C1CCCN(S(=O)(=O)c2cccc3cccnc23)C1 (stereo not given),inconclusive: -46.6%

# Some of these compounds in order of heavy-atom count, rising:
row,SMILES,"activity change (PNC), negative = inhibition"
13,O=c1c2c3c(sc2nc2n1CCCC2)CCCCC3,inactive: 50.9%
20,CCCn1nc(C(=O)Oc2ccc3c(C)cc(=O)oc3c2)c2ccccc2c1=O,inconclusive: -34.8%
5,COc1ccccc1NC(=O)C1=C(C)Nc2nnnn2C1c1cc(Br)ccc1OC (stereo not given),inconclusive: -31.3%
